Data taken from patent US11320422B2, “Inhibition of protein degradation for improved production” (LONZA LTD, priority 2016, dated 2022).
Some of these results come from one statement about several compounds together. For at least one compound, name, drawing or mass did not settle the structure.

Tested on: recombinant CHO antibody producing cell line (CH0149)
Experiment: Initial assessment of inhibitor concentrations on recombinant CHO cell line growth (viable cell number, culture viability, ViCell)
Type: cell-based, Chinese hamster
Details: 0.5 μM MG-132, 0.05 μM epoxomicin, 10 μM eeyarestatin I
Procedure: 96 deep well plates (Nunc) were seeded at 4×10^6 cells/ml at 300 μl per well for analysis of proteasome and ERAD inhibitors. Triplicate wells were prepared for each inhibitor for each of the panel of cell lines. […] 100 μl of the well volume was combined with 900 μl PBS and a cell count performed using the ViCell apparatus. The remaining 200 μl was centrifuged at 1000 rpm for 5 minutes and the supernatant and pellet stored at −20° C. prior to further analysis.
Initial assessment was performed across two experiments using one model recombinant CHO antibody producing cell line (CH0149) to determine the appropriate concentrations of each inhibitor to use for the assessment of the full panel (FIGS. 1A-1C and 2A-2F).

Structure (SMILES): CC[C@H](C)[C@H](NC(=O)[C@H]([C@@H](C)CC)N(C)C(C)=O)C(=O)N[C@H](C(=O)N[C@@H](CC(C)C)C(=O)[C@@]1(C)CO1)[C@@H](C)O [epoxomicin]
- reduction of cell concentration and culture viability compared to control: 30-60%
